The list is a part of this screen's results and no random one: it is rich in T/C values a quarter to a half above the control, in often repeated tests (any T/C) and in doses without a T/C. Further doses and runs are listed elsewhere. T/C gives the treated animals as a percentage of the vehicle group. Schedule codes are those of the source, read here as Q, the interval in days (D) or hours (H), X, the number of doses. Some T/C values are followed by the survivors on the day toxicity was checked, most often the fifth; without a count, all were alive then. Some entries give survivors of the animals treated and no T/C: the source holds a T/C of zero for them, seemingly a mark for toxic or unscored doses. Some survivor counts are full or nearly so, which does not show that the dose was tolerated: the source hardly ever lists a survival T/C far under the control, and the zero likely stands for such cases as well. Counts of survivors are from the toxicity check (mostly the fifth day) where no day follows; animals may have died later. Where survival is the endpoint, the PubChem record calls one and a half times the control and up active, and a quarter to a half above the control has no call in these data; cut-offs in other NCI protocols can differ. *1 amine or outer side, *2 acyl side, *3 side chain or, on linkers, in order; H or OH if unused. Where a SMILES comes first, the peptide text is derived from it. Bridges are numbered along the chain shown (N, C = ends). Roman numbers before positions name the chains, in order. [ ]: non-standard residue; d: D form. Actinocin(1to9) = Cc1c2oc3c(C)ccc(C(=O)[*:2])c3nc-2c(C(=O)[*:1])c(N)c1=O; NMeV = CN[CH](C(=O)O)C(C)C; Sar = CNCC(=O)O
Test system: BDF1 mice, s.c. Lewis lung carcinoma, T/C %
Test: NCI In Vivo Anticancer Drug Screen. Data for tumor model Lewis Lung Carcinoma (subcutaneous) in B6D2F1 (BDF1) mice
Method: The antitumor activity of compounds was measured in mice bearing transplantable tumors. Survival or tumor size were measured and the results are expressed as the measurement made in the treated group (T) divided by the measurement made in the vehicle treated control group (C). The tumor model used in this assay is Lewis Lung Carcinoma (subcutaneous) in B6D2F1 (BDF1) mice

[1] = T/C endpoint: median survival time, dose: 200.0 mg/kg/injection, schedule: Q01DX009 (ip), vehicle: Klucel (hydroxypropylcellulose) (HPC), higher T/C = longer survival

With `CCCCCC/C=C/[N+]([O-])=NC(COC)C(C)O` (configuration not stated) the survivor count (T/C endpoint: mean tumor weight, dose: 20.0 mg/kg/injection, schedule: Q01DX011 (ip), vehicle: carboxymethylcellulose (CMC), higher T/C = larger tumour) was 0 of 6.

`O=C1C=CC(=O)c2c(Cl)ccc(O)c21` was tested, and the survivor count (T/C endpoint: median survival time, dose: 10.0 mg/kg/injection, schedule: Q01DX009 (ip), vehicle: Klucel (hydroxypropylcellulose) (HPC), higher T/C = longer survival) was 5 of 10.

`CN(C)C(=O)N(CCCl)N=O` was tested, and the T/C (T/C endpoint: median survival time, dose: 25.0 mg/kg/injection, schedule: Q01DX001 (ip), vehicle: water, higher T/C = longer survival) was 131 % of control and the survivor count (T/C endpoint: median survival time, dose: 50.0 mg/kg/injection, schedule: Q01DX001 (ip), vehicle: water, higher T/C = longer survival) was 8 of 10.

In the case of `CCn1cnc2c(SC)nc(N)nc21`, the T/C (T/C endpoint: mean tumor weight, dose: 12.5 mg/kg/injection, schedule: Q01DX011 (ip), vehicle: other, evaluated on day 12, higher T/C = larger tumour) is reported as 129 % of control, the survivor count (T/C endpoint: mean tumor weight, dose: 25.0 mg/kg/injection, schedule: Q01DX011 (ip), vehicle: other, higher T/C = larger tumour) is reported as 3 of 6 and the survivor count (T/C endpoint: mean tumor weight, dose: 50.0 mg/kg/injection, schedule: Q01DX011 (ip), vehicle: other, higher T/C = larger tumour) is reported as 0 of 6.

With `C=C(CC(=O)O)C(=O)O` (tested in a mixture with another compound) the survivor count (T/C endpoint: median survival time, dose: 50.0 mg/kg/injection, schedule: Q01DX009 (ip), vehicle: other, higher T/C = longer survival) was 9 of 10, the survivor count (T/C endpoint: median survival time, dose: 100.0 mg/kg/injection, schedule: Q01DX009 (ip), vehicle: other, higher T/C = longer survival) was 10 of 10 and the survivor count (T/C endpoint: median survival time, dose: 200.0 mg/kg/injection, schedule: Q01DX009 (ip), vehicle: other, higher T/C = longer survival) was 4 of 10. The survivor count (T/C endpoint: median survival time, dose: 400.0 mg/kg/injection, schedule: Q01DX009 (ip), vehicle: other, higher T/C = longer survival) was 1 of 10.

`CCOC(=O)[C@H]1CCC[C@@H](NC(=O)N(CCCl)N=O)C1` was tested, and the T/C (T/C endpoint: median tumor weight (est.), dose: 13.0 mg/kg/injection, schedule: Q01DX001 (ip), vehicle: gum acacia, evaluated on day 19, higher T/C = larger tumour) was 130 % of control [7 of 10 alive on day 19], the survivor count (T/C endpoint: median tumor weight (est.), dose: 45.0 mg/kg/injection, schedule: Q01DX001 (ip), vehicle: gum acacia, higher T/C = larger tumour) was 2 of 10 on day 19 and the survivor count (T/C endpoint: median tumor weight (est.), dose: 67.0 mg/kg/injection, schedule: Q01DX001 (ip), vehicle: gum acacia, higher T/C = larger tumour) was 0 of 10 on day 19.

For `C=C(C)C(=O)O[C@H]1[C@H]2[C@H](OC(=O)[C@H]2C)[C@H](O)[C@@H](C)[C@@H]2C=CC(=O)[C@]21C`, the survivor count (T/C endpoint: median survival time, dose: 7.5 mg/kg/injection, schedule: Q01DX009 (ip), vehicle: saline, higher T/C = longer survival) was 10 of 10.

With `CC(NC(=O)C1(N)CCCC1)C(=O)O` (configuration not stated) the T/C (T/C endpoint: mean tumor weight, dose: 12.0 mg/kg/injection, schedule: Q01DX011 (ip), vehicle: carboxymethylcellulose (CMC), evaluated on day 12, higher T/C = larger tumour) was 130 % of control, the survivor count (T/C endpoint: mean tumor weight, dose: 25.0 mg/kg/injection, schedule: Q01DX011 (ip), vehicle: carboxymethylcellulose (CMC), higher T/C = larger tumour) was 3 of 6 and the survivor count (T/C endpoint: mean tumor weight, dose: 50.0 mg/kg/injection, schedule: Q01DX011 (ip), vehicle: carboxymethylcellulose (CMC), higher T/C = larger tumour) was 3 of 6. For the same compound, the survivor count (T/C endpoint: mean tumor weight, dose: 100.0 mg/kg/injection, schedule: Q01DX011 (ip), vehicle: carboxymethylcellulose (CMC), higher T/C = larger tumour) was 1 of 6.

For `COc1cc2c(c(OC)c1OC)-c1ccc(OC)c(=O)cc1[C@@H](NC(C)=O)CC2`, the survivor count (T/C endpoint: mean tumor weight, dose: 0.5 mg/kg/injection, schedule: Q01DX011 (ip), vehicle: saline, higher T/C = larger tumour) was 3 of 6, the survivor count (T/C endpoint: mean tumor weight, dose: 1.0 mg/kg/injection, schedule: Q01DX011 (ip), vehicle: saline, higher T/C = larger tumour) was 0 of 6 and the survivor count (T/C endpoint: mean tumor weight, dose: 2.0 mg/kg/injection, schedule: Q01DX011 (ip), vehicle: saline, higher T/C = larger tumour) was 0 of 6. For the same compound, the survivor count (T/C endpoint: mean tumor weight, dose: 4.0 mg/kg/injection, schedule: Q01DX011 (ip), vehicle: saline, higher T/C = larger tumour) was 0 of 6, the survivor count (T/C endpoint: mean tumor weight, dose: 8.0 mg/kg/injection, schedule: Q01DX011 (ip), vehicle: saline, higher T/C = larger tumour) was 0 of 6 and the survivor count (T/C endpoint: median survival time, dose: 1.0 mg/kg/injection, schedule: Q01DX009 (ip), vehicle: saline, higher T/C = longer survival) was 10 of 10. The survivor count (T/C endpoint: median survival time, dose: 2.0 mg/kg/injection, schedule: Q01DX009 (ip), vehicle: saline, higher T/C = longer survival) was 2 of 10.

In the case of `Nc1ncc(CNc2ccc(C(=O)NC(CCC(=O)O)C(=O)O)cc2)c(N)n1` (configuration not stated), the survivor count [1] is reported as 10 of 10.

In the case of `CCC(C)C1NC(=O)C(NC(=O)c2c3nc4c(C(=O)NC5C(=O)NC(C(C)C)C(=O)N6CCCC6C(=O)N(C)CC(=O)N(C)C(C(C)C)C(=O)OC5C)ccc(C)c4oc-3c(C)c(=O)c2N)C(C)OC(=O)C(C(C)C)N(C)C(=O)CN(C)C(=O)C2CCCN2C1=O` (configuration not stated) (I: TIP[Sar][NMeV] / II: TVP[Sar][NMeV]; ester I:1-I:C, II:1-II:C; linker I:N-II:N via Actinocin(1to9); configuration not given here), the survivor count (T/C endpoint: median survival time, dose: 100.0 micrograms/kg/injection, schedule: Q01DX009 (ip), vehicle: water, higher T/C = longer survival) is reported as 10 of 10, the survivor count (T/C endpoint: median survival time, dose: 200.0 micrograms/kg/injection, schedule: Q01DX009 (ip), vehicle: water, higher T/C = longer survival) is reported as 10 of 10 and the survivor count (T/C endpoint: median survival time, dose: 600.0 micrograms/kg/injection, schedule: Q04DX003 (ip), vehicle: water, higher T/C = longer survival) is reported as 10 of 10. For the same compound, the survivor count (T/C endpoint: median survival time, dose: 1200.0 micrograms/kg/injection, schedule: Q04DX003 (ip), vehicle: water, higher T/C = longer survival) was 10 of 10.

With `O=c1ccc2ccccc2o1` the survivor count (T/C endpoint: mean tumor weight, dose: 250.0 mg/kg/injection, schedule: Q01DX011 (ip), vehicle: carboxymethylcellulose (CMC), higher T/C = larger tumour) was 0 of 6 and the survivor count (T/C endpoint: mean tumor weight, dose: 375.0 mg/kg/injection, schedule: Q01DX011 (ip), vehicle: carboxymethylcellulose (CMC), higher T/C = larger tumour) was 0 of 6.

`C/C=C1\CNC2Cc3c([nH]c4ccccc34)C(=O)CC1C2C(=O)OC` (configuration not stated) was tested, and the survivor count (T/C endpoint: mean tumor weight, dose: 200.0 mg/kg/injection, schedule: Q01DX011 (ip), vehicle: saline, higher T/C = larger tumour) was 1 of 6.

`CN1C(=O)C=CC1=O` was tested, and the survivor count (T/C endpoint: median survival time, dose: 8.0 mg/kg/injection, schedule: Q02DX009 (ip), vehicle: saline, higher T/C = longer survival) was 6 of 10.

For `S=P(N1CC1)(N1CC1)N1CC1`, the survivor count (T/C endpoint: median survival time, dose: 6.0 mg/kg/injection, schedule: Q01DX009 (ip), vehicle: Klucel (hydroxypropylcellulose) (HPC), higher T/C = longer survival) was 10 of 10, the survivor count (T/C endpoint: median survival time, dose: 8.0 mg/kg/injection, schedule: Q01DX009 (ip), vehicle: saline, higher T/C = longer survival) was 10 of 10 and the survivor count (T/C endpoint: median survival time, dose: 12.0 mg/kg/injection, schedule: Q01DX009 (ip), vehicle: Klucel (hydroxypropylcellulose) (HPC), higher T/C = longer survival) was 10 of 10. The survivor count (T/C endpoint: median survival time, dose: 16.0 mg/kg/injection, schedule: Q01DX009 (ip), vehicle: saline, higher T/C = longer survival) was 7 of 10, the survivor count (T/C endpoint: median survival time, dose: 16.0 mg/kg/injection, schedule: Q02DX009 (ip), vehicle: saline, higher T/C = longer survival) was 10 of 10 and the survivor count (T/C endpoint: median survival time, dose: 24.0 mg/kg/injection, schedule: Q01DX009 (ip), vehicle: Klucel (hydroxypropylcellulose) (HPC), higher T/C = longer survival) was 6 of 10. For the same compound, the survivor count (T/C endpoint: median survival time, dose: 32.0 mg/kg/injection, schedule: Q02DX009 (ip), vehicle: saline, higher T/C = longer survival) was 10 of 10 and the survivor count (T/C endpoint: median survival time, dose: 64.0 mg/kg/injection, schedule: Q02DX009 (ip), vehicle: saline, higher T/C = longer survival) was 0 of 10.

For `CCNC1=C(N2CC2)C(=O)C(NCC)=C(N2CC2)C1=O`, the T/C (T/C endpoint: median survival time, dose: 1.5 mg/kg/injection, schedule: Q01DX009 (ip), vehicle: saline, higher T/C = longer survival) was 125 % of control and the survivor count (T/C endpoint: median survival time, dose: 3.0 mg/kg/injection, schedule: Q01DX009 (ip), vehicle: saline, higher T/C = longer survival) was 10 of 10.

For `COc1ccccc1NC(=O)N(CCCl)N=O`, the survivor count (T/C endpoint: median survival time, dose: 3.12 mg/kg/injection, schedule: Q01DX009 (ip), vehicle: saline with Tween-80, higher T/C = longer survival) was 10 of 10, the survivor count (T/C endpoint: median survival time, dose: 6.25 mg/kg/injection, schedule: Q01DX009 (ip), vehicle: saline with Tween-80, higher T/C = longer survival) was 10 of 10 and the survivor count (T/C endpoint: median survival time, dose: 12.5 mg/kg/injection, schedule: Q01DX009 (ip), vehicle: saline with Tween-80, higher T/C = longer survival) was 10 of 10. The survivor count (T/C endpoint: median survival time, dose: 25.0 mg/kg/injection, schedule: Q01DX009 (ip), vehicle: saline with Tween-80, higher T/C = longer survival) was 10 of 10.

`CN(C)CC(C(=O)c1ccc(Br)cc1)C(Br)c1ccccc1` (configuration not stated) was tested, and the T/C (T/C endpoint: median survival time, dose: 20.0 mg/kg/injection, schedule: Q01DX009 (ip), vehicle: saline, higher T/C = longer survival) was 135 % of control.

With `Cc1cc(C)nc(NS(=O)(=O)c2ccc(N=Nc3nc4[nH]c(N)nc(=S)c4[nH]3)cc2)n1` the survivor count (T/C endpoint: median survival time, dose: 3.12 mg/kg/injection, schedule: Q01DX009 (ip), vehicle: Klucel (hydroxypropylcellulose) (HPC), higher T/C = longer survival) was 10 of 10, the survivor count (T/C endpoint: median survival time, dose: 6.25 mg/kg/injection, schedule: Q01DX009 (ip), vehicle: Klucel (hydroxypropylcellulose) (HPC), higher T/C = longer survival) was 10 of 10 and the survivor count (T/C endpoint: median survival time, dose: 12.5 mg/kg/injection, schedule: Q01DX009 (ip), vehicle: Klucel (hydroxypropylcellulose) (HPC), higher T/C = longer survival) was 10 of 10. The survivor count (T/C endpoint: median survival time, dose: 25.0 mg/kg/injection, schedule: Q01DX009 (ip), vehicle: Klucel (hydroxypropylcellulose) (HPC), higher T/C = longer survival) was 10 of 10, the survivor count (T/C endpoint: median survival time, dose: 50.0 mg/kg/injection, schedule: Q01DX009 (ip), vehicle: Klucel (hydroxypropylcellulose) (HPC), higher T/C = longer survival) was 10 of 10 and the survivor count (T/C endpoint: median survival time, dose: 100.0 mg/kg/injection, schedule: Q01DX009 (ip), vehicle: Klucel (hydroxypropylcellulose) (HPC), higher T/C = longer survival) was 10 of 10. The survivor count [1] was 8 of 10.

Reference: PubChem BioAssay AID270 (DTP/NCI, 2004)
